# Measurements: US7910735B2, “Substituted pyrazinecarboxylic acid anilide derivatives or salts thereof, intermediates of the same, pesticides for agricultural and horticultural use, and usage thereof” (Nihon Nohyaku Co., Ltd., priority 2004, dated 2011)
# Some entries share one result that the patent states for a list of compounds.
# Tested on: Two-spotted Spider Mite (Tetranychus urticae)
# Assay: Acaricidal action on two-spotted spider mite, kidney bean leaf disk spray test
# Format: in vivo
# Conditions: sprayed on kidney bean leaf disk, two days after treatment, 25° C.
Compound,acaricidal action judged by corrected mortality (50 ppm),acaricidal action judged by corrected mortality (500 ppm)
Cc1nccnc1C(=O)Nc1ccc(C(C(F)(F)F)C(F)(F)F)c(C(Br)C(C)C)c1 (racemic) [1-74],A (A—Corrected Mortality 100%),A (A—Corrected Mortality 100%)
CCC(C)Cc1cc(NC(=O)c2nccnc2C)ccc1C(C(F)(F)F)C(F)(F)F (racemic) [1-81],A (A—Corrected Mortality 100%),A (A—Corrected Mortality 100%)
CCC(C)Cc1cc(NC(=O)c2nccnc2C)ccc1C(OC)(C(F)(F)F)C(F)(F)F (racemic) [1-82],A (A—Corrected Mortality 100%),A (A—Corrected Mortality 100%)
COC(c1ccc(NC(=O)c2nccnc2C(F)(F)F)cc1CC(C)C)(C(F)(F)F)C(F)(F)F [1-43],A (A—Corrected Mortality 100%),A (A—Corrected Mortality 100%)
CC(C)Cc1cc(NC(=O)c2nccnc2F)ccc1C(C(F)(F)F)C(F)(F)F [1-51],A (A—Corrected Mortality 100%),A (A—Corrected Mortality 100%)
CC(C)Cc1cc(NC(=O)c2nccnc2Br)ccc1C(C(F)(F)F)C(F)(F)F [1-53],A (A—Corrected Mortality 100%),A (A—Corrected Mortality 100%)
COC(c1ccc(NC(=O)c2nccnc2Br)cc1CC(C)C)(C(F)(F)F)C(F)(F)F [1-54],A (A—Corrected Mortality 100%),A (A—Corrected Mortality 100%)
COC(c1ccc(NC(=O)c2nccnc2C)cc1C=C(C)C)(C(F)(F)F)C(F)(F)F [1-73],A (A—Corrected Mortality 100%),A (A—Corrected Mortality 100%)
CCCCc1cc(NC(=O)c2nccnc2C)ccc1C(C(F)(F)F)C(F)(F)F [1-76],A (A—Corrected Mortality 100%),A (A—Corrected Mortality 100%)
CCCCc1cc(NC(=O)c2nccnc2C)ccc1C(OC)(C(F)(F)F)C(F)(F)F [1-77],A (A—Corrected Mortality 100%),A (A—Corrected Mortality 100%)
Cc1nccnc1C(=O)Nc1ccc(C(C(F)(F)F)C(F)(F)F)c(CCC(C)C)c1 [1-79],A (A—Corrected Mortality 100%),A (A—Corrected Mortality 100%)
Cc1nccnc1C(=O)Nc1ccc(C(C(F)(F)F)C(F)(F)F)c(CC2CCCC2)c1 [1-87],A (A—Corrected Mortality 100%),A (A—Corrected Mortality 100%)
Cc1nccnc1C(=O)Nc1ccc(C(C(F)(F)F)C(F)(F)F)c(Cc2ccccc2)c1 [1-90],A (A—Corrected Mortality 100%),A (A—Corrected Mortality 100%)
COC(c1ccc(N(C(=O)OCC(Cl)(Cl)Cl)C(=O)c2nccnc2C)cc1CC(C)C)(C(F)(F)F)C(F)(F)F [1-104],A (A—Corrected Mortality 100%),A (A—Corrected Mortality 100%)
"COC(c1ccc(N(C(C)=O)C(=O)c2nccnc2C)cc1CC(C)C)(C(F)(F)F)C(F)(F)F [1-106, N-acetyl-N-{3-isobutyl-4-[1-methoxy-2,2,2-trifluoro-1-(trifluoromethyl)-ethyl]pheny}-3-methylpyrazine-2-carboxamide]",A (A—Corrected Mortality 100%),A (A—Corrected Mortality 100%)
CCOC(=O)CN(C(=O)c1nccnc1C)c1ccc(C(OC)(C(F)(F)F)C(F)(F)F)c(CC(C)C)c1 [1-112],A (A—Corrected Mortality 100%),A (A—Corrected Mortality 100%)
COC(c1ccc(N(COCc2ccccc2)C(=O)c2nccnc2C)cc1CC(C)C)(C(F)(F)F)C(F)(F)F [1-117],A (A—Corrected Mortality 100%),A (A—Corrected Mortality 100%)
C#CCN(C(=O)c1nccnc1C(F)(F)F)c1ccc(C(C(F)(F)F)C(F)(F)F)c(CC(C)C)c1 [1-125],A (A—Corrected Mortality 100%),A (A—Corrected Mortality 100%)
CCOCN(C(=O)c1nccnc1C(F)(F)F)c1ccc(C(OC)(C(F)(F)F)C(F)(F)F)c(CC(C)C)c1 [1-145],A (A—Corrected Mortality 100%),A (A—Corrected Mortality 100%)
CCOCN(C(=O)c1nccnc1C(F)(F)F)c1ccc(C(C(F)(F)F)C(F)(F)F)c(CC(C)C)c1 [1-146],A (A—Corrected Mortality 100%),A (A—Corrected Mortality 100%)
CCOCN(C(=O)c1nccnc1OC)c1ccc(C(OC)(C(F)(F)F)C(F)(F)F)c(CC(C)C)c1 [1-163],A (A—Corrected Mortality 100%),A (A—Corrected Mortality 100%)
CCCCN(CCCC)SN(C(=O)c1nccnc1C)c1ccc(C(C(F)(F)F)C(F)(F)F)c(CC(C)C)c1 [1-189],A (A—Corrected Mortality 100%),A (A—Corrected Mortality 100%)
"COC(c1ccc(NC(=O)c2nccnc2CF)cc1CC(C)C)(C(F)(F)F)C(F)(F)F [Compound No. 1-39, N-{3-isobutyl-4-[1-methoxy-2,2,2-trifluoro-1-(trifluoromethyl)ethyl]pheny}-3-fluoromethylpyrazine-2-carboxamide]",A (A—Corrected Mortality 100%),A (A—Corrected Mortality 100%)
"CC(C)Cc1cc(NC(=O)c2nccnc2C(F)(F)F)ccc1C(C(F)(F)F)C(F)(F)F [Compound No. 1-42, N-{3-isobutyl-4-[2,2,2-trifluoro-1-(trifluoromethyl)ethyl]pheny}-3-trifluoromethylpyrazine-2-carboxamide]",A (A—Corrected Mortality 100%),A (A—Corrected Mortality 100%)
"COC(c1ccc(N(C(=O)OCC(C)C)C(=O)c2nccnc2C)cc1CC(C)C)(C(F)(F)F)C(F)(F)F [Compound No. 1-96, N-isobutyloxycarbonyl-N-{3-isobutyl-4-[1-methoxy-2,2,2-trifluoro-1-(trifluoromethyl)ethyl]pheny}-3-methylpyrazine-2-carboxamide]",A (A—Corrected Mortality 100%),A (A—Corrected Mortality 100%)
"CCOCN(C(=O)c1nccnc1C)c1ccc(C(OC)(C(F)(F)F)C(F)(F)F)c(CC(C)C)c1 [Compound No. 1-114, N-ethoxymethyl-N-{3-isobutyl-4-[1-methoxy-2,2,2-trifluoro-1-(trifluoromethyl)ethyl]pheny}-3-methylpyrazine-2-carboxamide]",A (A—Corrected Mortality 100%),A (A—Corrected Mortality 100%)
